# From article doi:10.1101/2022.10.19.512916
# By UniProt entry, the sequences of proteins in these tests, tags left out.
# UniProt P15924: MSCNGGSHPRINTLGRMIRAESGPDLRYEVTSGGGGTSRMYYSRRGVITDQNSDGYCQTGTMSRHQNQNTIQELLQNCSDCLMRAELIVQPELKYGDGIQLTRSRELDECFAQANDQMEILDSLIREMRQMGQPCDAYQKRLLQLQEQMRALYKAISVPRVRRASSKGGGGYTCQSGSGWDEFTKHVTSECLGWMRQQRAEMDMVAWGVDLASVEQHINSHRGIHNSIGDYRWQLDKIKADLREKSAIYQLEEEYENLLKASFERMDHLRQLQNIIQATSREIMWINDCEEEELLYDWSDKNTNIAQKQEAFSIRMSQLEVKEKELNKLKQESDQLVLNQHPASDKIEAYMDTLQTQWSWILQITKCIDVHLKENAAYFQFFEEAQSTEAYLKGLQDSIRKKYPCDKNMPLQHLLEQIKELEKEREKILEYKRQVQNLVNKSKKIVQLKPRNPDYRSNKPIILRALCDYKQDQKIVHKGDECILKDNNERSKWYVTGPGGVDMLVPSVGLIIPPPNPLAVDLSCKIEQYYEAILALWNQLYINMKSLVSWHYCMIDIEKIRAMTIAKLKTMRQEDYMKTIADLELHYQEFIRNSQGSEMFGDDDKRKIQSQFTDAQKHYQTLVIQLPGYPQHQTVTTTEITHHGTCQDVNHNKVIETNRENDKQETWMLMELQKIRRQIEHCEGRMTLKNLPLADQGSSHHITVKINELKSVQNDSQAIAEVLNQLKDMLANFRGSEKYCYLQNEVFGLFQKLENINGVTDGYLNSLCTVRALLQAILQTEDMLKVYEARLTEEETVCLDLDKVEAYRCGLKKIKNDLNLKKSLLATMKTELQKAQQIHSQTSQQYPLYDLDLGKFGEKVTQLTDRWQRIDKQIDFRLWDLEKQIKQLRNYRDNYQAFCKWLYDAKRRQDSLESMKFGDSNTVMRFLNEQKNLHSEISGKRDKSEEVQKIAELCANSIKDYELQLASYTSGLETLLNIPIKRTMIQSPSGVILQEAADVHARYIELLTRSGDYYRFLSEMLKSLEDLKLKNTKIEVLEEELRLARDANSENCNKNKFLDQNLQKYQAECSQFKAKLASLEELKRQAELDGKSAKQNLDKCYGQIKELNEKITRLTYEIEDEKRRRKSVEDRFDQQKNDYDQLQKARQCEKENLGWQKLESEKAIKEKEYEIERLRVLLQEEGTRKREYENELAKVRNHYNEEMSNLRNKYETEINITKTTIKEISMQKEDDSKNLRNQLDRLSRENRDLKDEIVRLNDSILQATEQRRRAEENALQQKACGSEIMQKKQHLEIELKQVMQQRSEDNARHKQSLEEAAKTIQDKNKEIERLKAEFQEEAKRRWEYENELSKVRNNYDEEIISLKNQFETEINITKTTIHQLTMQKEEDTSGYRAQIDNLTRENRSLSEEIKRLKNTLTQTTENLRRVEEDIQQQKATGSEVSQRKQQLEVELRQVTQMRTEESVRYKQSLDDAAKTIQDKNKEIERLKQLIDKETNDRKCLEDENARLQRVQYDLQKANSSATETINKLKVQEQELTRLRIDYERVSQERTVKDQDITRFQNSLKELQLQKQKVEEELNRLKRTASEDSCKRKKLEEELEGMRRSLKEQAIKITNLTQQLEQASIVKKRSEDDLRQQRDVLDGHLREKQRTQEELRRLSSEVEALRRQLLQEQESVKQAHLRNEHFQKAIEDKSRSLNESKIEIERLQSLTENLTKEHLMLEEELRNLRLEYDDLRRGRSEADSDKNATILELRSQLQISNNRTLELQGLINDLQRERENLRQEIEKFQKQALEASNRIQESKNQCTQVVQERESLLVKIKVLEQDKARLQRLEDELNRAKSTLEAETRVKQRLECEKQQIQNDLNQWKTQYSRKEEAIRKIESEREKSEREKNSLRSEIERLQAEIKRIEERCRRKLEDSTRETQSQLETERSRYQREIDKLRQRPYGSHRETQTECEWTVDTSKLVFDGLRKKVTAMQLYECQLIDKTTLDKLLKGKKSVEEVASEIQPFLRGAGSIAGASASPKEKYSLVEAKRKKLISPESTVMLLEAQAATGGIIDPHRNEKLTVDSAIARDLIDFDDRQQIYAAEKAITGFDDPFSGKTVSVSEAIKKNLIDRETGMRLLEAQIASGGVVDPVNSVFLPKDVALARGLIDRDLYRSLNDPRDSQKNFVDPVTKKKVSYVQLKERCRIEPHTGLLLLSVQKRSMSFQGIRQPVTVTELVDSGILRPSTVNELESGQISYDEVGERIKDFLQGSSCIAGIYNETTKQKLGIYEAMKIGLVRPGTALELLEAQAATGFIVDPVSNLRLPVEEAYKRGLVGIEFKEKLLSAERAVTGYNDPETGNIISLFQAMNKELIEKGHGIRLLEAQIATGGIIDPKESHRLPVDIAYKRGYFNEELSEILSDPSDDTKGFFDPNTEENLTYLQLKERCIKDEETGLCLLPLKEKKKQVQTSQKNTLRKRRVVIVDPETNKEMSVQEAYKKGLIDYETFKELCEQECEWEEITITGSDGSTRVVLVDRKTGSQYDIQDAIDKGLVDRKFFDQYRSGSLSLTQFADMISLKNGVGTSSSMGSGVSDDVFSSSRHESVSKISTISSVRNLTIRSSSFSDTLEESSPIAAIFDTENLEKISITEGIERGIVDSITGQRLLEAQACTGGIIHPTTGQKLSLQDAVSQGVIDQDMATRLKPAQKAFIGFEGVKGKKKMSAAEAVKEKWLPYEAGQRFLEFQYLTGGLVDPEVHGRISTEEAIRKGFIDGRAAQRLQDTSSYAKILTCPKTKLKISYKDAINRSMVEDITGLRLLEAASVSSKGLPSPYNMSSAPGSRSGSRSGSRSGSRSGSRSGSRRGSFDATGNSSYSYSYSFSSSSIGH
# These are yes or no findings as the source states them, for the method shown. In cells and extracts the contact can be indirect. Some results given as binding are weak or reduced against the parent protein; the word gives no strength.
# T1: PP2A regulatory subunit B55α (human (endogenous in SCC9)) (UniProt P63151)
# T1 sequence: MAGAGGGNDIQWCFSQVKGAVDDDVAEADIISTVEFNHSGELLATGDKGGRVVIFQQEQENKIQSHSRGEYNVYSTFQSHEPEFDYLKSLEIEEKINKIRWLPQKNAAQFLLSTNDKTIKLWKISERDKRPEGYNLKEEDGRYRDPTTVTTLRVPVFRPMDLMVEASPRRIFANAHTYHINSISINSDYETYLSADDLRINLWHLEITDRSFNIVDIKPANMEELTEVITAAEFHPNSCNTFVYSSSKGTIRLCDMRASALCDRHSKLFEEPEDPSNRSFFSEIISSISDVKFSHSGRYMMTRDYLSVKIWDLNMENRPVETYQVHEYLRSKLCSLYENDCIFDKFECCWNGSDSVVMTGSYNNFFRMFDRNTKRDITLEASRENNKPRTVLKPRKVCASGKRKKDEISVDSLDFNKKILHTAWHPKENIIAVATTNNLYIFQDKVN
# B1: desmosomal cadherin Dsg3, P32926 50-999 (protein)
# chain: EWVKFAKPCREGEDNSKRNPIAKITSDYQATQKITYRISGVGIDQPPFGIFVVDKNTGDINITAIVDREETPSFLITCRALNAQGLDVEKPLILTVKILDINDNPPVFSQQIFMGEIEENSASNSLVMILNATDADEPNHLNSKIAFKIVSQEPAGTPMFLLSRNTGEVRTLTNSLDREQASSYRLVVSGADKDGEGLSTQCECNIKVKDVNDNFPMFRDSQYSARIEENILSSELLRFQVTDLDEEYTDNWLAVYFFTSGNEGNWFEIQTDPRTNEGILKVVKALDYEQLQSVKLSIAVKNKAEFHQSVISRYRVQSTPVTIQVINVREGIAFRPASKTFTVQKGISSKKLVDYILGTYQAIDEDTNKAASNVKYVMGRNDGGYLMIDSKTAEIKFVKNMNRDSTFIVNKTITAEVLAIDEYTGKTSTGTVYVRVPDFNDNCPTAVLEKDAVCSSSPSVVVSARTLNNRYTGPYTFALEDQPVKLPAVWSITTLNATSALLRAQEQIPPGVYHISLVLTDSQNNRCEMPRSLTLEVCQCDNRGICGTSYPTTSPGTRYGRPHSGRLGPAAIGLLLLGLLLLLLAPLLLLTCDCGAGSTGGVTGGFIPVPDGSEGTIHQWGIEGAHPEDKEITNICVPPVTANGADFMESSEVCTNTYARGTAVEGTSGMEMTTKLGAATESGGAAGFATGTVSGAASGFGAATGVGICSSGQSGTMRTRHSTGGTNKDYADGAISMNFLDSYFSQKAFACAEEDDGQEANDCLLIYDNEGADATGSPVGSVGCCSFIADDLDDSFLDSLGPKFKKLAEISLGVDGEGKEVQPPSKDSGYGIESCGHPIEVQQTGFVKCQTLSGSQGASALSTSGSVQPAVSIPDPLQHGNYLVTETYSASGSLVQPSTAGFDPLLTQNVIVTERVICPISSVPGNLAGPTQLRGSHTMLCTEDPCSRLI
# B2: PP2A regulatory subunit B55α (protein, UniProt P63151 1-447)
# chain: T1 sequence
# B3: desmosomal cadherin Dsg3 (protein, UniProt P32926 50-999)
# chain: B1 chain
# Legend:
# [1] = biological target: desmoplakin (DP) (human (endogenous in SCC9)), P15924; experiment: co-IP; details: remark: other sources report otherwise
# [2] = biological target: desmoplakin (DP) (human (endogenous in SCC9)) (UniProt P15924); experiment: proximity ligation
# [3] = biological target: desmoplakin (DP) (human (endogenous in SCC9)) (UniProt P15924); experiment: proximity ligation; remark: listed apart in the source
# [4] = biological target: desmoplakin (DP) (human (endogenous in SCC9)) (UniProt P15924); experiment: co-IP
# [5] = biological target: T1, PP2A regulatory subunit B55α (human (endogenous in SCC9)); experiment: co-IP
binder,measurement,setting,value
B1,binding,[1],binds
B2,binding,[2],binds
same,binding,[3],binds
same,binding,[4],binds
B3,binding,[5],no binding
